# Measured values as given in the supplement of paper PMC6411743.
# Amino acid sequences for entries named in this document (tags omitted). A change or cut given only in a name is not applied to a line headed by its entry.
# UniProt Q9Y2U5: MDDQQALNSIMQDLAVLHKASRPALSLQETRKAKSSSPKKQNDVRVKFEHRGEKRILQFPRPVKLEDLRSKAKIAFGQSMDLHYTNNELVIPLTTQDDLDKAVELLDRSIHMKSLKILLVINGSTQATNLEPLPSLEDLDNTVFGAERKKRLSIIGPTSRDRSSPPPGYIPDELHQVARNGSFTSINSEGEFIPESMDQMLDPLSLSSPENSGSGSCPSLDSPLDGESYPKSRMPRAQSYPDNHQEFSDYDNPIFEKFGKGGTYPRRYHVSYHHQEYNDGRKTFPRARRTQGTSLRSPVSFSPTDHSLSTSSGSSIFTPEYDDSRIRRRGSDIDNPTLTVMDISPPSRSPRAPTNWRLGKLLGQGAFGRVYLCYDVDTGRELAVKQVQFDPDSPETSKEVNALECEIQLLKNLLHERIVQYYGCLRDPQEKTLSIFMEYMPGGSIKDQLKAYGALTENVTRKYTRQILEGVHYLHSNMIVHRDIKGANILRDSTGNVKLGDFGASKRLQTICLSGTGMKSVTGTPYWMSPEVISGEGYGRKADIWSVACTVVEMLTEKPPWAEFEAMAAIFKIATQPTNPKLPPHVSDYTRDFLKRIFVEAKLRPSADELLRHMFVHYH
# UniProt Q9UQR0: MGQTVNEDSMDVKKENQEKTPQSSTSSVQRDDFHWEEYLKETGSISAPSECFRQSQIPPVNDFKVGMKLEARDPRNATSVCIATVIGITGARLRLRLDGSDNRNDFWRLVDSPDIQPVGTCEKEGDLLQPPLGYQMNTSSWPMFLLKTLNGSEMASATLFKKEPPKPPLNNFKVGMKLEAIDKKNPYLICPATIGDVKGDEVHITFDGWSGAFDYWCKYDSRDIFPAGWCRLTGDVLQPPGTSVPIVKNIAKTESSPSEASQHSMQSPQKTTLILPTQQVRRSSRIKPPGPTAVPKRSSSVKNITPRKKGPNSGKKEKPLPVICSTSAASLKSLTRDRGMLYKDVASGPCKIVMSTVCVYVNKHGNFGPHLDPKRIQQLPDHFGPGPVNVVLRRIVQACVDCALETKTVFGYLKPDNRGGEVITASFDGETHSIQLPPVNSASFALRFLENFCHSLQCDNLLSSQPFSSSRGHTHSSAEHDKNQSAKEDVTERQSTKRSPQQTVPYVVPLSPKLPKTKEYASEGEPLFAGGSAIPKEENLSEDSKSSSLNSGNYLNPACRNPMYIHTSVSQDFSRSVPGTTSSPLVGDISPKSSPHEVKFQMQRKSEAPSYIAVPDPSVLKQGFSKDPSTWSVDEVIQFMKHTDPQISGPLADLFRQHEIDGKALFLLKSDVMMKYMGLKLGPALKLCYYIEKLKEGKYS
# UniProt Q9UNK0: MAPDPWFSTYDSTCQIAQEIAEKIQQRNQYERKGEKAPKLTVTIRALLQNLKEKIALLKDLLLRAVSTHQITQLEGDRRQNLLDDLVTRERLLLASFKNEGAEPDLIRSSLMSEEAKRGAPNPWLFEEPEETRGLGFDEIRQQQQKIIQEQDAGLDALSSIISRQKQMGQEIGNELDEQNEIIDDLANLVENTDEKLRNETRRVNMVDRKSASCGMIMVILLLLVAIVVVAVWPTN
# UniProt Q9Y657, whole entry: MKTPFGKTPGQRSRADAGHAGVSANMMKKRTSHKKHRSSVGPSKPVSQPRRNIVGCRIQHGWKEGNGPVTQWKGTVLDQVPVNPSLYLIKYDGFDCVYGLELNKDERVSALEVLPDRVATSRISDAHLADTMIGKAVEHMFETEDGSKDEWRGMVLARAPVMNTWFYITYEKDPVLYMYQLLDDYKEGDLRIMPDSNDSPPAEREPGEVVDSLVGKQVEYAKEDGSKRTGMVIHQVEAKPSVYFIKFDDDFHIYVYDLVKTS
# UniProt Q8N3Z3: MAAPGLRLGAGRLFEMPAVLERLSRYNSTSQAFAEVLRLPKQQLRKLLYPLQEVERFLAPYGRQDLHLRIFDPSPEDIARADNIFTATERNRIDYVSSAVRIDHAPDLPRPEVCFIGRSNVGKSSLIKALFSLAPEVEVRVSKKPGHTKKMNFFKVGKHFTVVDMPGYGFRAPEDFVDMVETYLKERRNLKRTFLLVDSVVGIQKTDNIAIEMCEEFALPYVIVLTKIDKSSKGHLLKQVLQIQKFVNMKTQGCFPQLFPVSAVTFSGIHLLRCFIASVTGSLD
# UniProt Q8TCU4: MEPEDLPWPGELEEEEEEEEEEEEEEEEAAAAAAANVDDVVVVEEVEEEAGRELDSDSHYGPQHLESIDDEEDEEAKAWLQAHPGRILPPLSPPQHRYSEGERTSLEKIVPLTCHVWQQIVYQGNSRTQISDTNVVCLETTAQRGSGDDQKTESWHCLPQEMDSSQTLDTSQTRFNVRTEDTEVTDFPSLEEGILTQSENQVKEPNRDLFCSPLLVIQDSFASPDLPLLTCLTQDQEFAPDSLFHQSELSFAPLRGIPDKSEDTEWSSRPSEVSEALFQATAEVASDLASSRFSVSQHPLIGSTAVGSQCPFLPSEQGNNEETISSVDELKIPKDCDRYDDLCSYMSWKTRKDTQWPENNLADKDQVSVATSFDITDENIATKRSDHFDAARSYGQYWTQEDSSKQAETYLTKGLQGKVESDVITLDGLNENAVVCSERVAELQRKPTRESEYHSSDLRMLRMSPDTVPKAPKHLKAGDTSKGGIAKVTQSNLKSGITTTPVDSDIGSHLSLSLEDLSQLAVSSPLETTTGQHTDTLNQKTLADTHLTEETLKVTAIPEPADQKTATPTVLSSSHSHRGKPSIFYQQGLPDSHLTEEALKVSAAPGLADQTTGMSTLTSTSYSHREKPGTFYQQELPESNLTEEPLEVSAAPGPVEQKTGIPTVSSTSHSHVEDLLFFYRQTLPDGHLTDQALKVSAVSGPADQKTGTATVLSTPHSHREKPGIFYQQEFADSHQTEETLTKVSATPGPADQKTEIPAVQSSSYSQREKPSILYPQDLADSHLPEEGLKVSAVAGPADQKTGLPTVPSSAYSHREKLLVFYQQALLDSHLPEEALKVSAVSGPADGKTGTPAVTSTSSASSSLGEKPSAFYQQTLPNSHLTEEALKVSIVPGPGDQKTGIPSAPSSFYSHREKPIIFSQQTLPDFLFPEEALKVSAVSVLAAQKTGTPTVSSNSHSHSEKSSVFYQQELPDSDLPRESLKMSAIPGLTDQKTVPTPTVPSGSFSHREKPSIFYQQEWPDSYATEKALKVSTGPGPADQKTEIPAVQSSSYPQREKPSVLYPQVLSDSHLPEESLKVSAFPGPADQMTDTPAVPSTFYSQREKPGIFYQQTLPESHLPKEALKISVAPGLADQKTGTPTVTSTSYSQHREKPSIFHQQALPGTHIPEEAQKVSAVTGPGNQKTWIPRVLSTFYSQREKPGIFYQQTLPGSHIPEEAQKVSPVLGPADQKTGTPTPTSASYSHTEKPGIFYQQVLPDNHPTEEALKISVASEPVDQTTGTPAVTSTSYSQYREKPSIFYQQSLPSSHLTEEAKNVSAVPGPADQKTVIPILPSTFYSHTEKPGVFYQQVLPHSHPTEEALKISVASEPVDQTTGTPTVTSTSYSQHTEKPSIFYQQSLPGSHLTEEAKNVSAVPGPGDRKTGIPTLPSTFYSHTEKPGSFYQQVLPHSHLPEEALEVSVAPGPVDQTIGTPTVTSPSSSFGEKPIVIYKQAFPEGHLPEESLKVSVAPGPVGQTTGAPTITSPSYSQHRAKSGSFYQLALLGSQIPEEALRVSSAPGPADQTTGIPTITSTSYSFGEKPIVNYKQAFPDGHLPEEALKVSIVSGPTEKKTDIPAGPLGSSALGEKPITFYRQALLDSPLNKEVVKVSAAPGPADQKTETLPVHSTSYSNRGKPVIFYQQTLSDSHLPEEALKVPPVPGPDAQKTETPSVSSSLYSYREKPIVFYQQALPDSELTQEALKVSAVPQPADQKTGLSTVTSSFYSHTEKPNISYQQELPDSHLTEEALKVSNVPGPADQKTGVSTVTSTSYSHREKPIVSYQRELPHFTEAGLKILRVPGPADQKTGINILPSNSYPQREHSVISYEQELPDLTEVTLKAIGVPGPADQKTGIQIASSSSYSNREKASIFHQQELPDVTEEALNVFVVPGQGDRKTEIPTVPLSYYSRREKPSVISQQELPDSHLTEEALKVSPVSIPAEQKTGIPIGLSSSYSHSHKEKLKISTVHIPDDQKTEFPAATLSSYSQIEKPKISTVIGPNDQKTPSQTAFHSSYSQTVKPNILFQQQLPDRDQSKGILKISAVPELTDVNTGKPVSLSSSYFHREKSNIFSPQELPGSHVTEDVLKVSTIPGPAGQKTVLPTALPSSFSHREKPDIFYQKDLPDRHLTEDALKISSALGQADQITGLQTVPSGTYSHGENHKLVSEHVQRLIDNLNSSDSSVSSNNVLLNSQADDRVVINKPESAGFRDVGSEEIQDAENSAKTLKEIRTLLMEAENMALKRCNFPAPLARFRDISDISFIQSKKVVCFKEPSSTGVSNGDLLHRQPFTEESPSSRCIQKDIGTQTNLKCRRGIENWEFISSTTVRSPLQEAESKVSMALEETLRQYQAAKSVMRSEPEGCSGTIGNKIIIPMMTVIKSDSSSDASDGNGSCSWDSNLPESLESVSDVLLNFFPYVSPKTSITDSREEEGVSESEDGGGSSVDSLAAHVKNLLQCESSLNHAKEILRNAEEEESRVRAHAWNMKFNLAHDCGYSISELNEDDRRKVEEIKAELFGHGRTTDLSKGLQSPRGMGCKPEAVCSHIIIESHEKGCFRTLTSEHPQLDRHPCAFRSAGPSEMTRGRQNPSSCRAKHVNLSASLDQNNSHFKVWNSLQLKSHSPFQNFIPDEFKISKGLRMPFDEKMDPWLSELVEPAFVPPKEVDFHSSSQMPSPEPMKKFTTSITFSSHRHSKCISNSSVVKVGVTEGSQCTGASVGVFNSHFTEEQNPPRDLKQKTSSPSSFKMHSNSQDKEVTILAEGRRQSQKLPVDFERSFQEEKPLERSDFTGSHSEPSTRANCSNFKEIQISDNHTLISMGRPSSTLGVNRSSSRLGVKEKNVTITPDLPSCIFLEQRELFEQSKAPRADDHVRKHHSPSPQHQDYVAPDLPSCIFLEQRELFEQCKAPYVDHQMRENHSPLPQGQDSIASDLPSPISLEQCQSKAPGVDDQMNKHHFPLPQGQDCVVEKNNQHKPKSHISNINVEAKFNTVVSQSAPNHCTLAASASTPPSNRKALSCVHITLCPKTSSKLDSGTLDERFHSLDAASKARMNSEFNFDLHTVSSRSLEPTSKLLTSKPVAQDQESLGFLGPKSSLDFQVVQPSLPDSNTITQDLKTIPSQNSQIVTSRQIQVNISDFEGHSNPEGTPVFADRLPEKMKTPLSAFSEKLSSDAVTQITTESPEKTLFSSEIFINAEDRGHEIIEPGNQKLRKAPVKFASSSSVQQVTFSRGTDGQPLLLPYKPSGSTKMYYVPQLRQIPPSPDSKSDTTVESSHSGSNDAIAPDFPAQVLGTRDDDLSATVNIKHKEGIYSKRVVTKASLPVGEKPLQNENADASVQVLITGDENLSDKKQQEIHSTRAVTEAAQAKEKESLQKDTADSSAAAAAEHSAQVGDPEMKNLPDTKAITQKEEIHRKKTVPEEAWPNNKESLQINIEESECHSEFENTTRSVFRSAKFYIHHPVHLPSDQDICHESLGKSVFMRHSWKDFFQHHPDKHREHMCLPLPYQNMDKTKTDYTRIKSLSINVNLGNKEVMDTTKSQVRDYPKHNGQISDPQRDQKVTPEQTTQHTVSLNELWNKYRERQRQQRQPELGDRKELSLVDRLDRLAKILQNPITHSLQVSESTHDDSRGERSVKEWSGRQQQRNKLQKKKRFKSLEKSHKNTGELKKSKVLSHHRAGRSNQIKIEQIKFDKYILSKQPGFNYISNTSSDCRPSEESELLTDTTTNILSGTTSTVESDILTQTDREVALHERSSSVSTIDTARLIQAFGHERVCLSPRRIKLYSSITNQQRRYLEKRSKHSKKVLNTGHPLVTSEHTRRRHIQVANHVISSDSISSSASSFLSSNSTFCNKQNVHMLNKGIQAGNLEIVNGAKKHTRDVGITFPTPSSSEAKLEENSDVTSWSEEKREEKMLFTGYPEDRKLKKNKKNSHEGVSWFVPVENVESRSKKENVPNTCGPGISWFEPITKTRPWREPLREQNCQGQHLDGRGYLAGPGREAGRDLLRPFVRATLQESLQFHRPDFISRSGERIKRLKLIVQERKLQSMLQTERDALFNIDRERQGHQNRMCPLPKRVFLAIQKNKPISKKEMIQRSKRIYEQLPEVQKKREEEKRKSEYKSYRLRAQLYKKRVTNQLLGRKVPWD
# UniProt P06493, whole entry, looked up: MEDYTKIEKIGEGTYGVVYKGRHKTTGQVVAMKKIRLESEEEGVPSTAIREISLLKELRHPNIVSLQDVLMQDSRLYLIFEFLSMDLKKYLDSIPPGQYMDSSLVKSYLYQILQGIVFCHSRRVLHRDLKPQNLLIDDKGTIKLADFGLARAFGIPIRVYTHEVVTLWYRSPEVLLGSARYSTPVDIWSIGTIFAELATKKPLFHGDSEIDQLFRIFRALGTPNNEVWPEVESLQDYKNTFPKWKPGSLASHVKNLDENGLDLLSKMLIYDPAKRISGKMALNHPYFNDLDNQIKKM
# ± gives the standard deviation of the averaged measurements. The list shows a part of the results, in another mix than the full data. The list shows a part of the results.
# Compound: Nc1nc2c(ncn2[C@@H]2O[C@H](COP(=O)(O)OP(=O)(O)OP(=O)(O)O)[C@@H](O)[C@H]2O)c(=O)[nH]1 [guanosine triphosphate]
# Experiment: NP40-soluble protein abundance relative to vehicle (solubility fold change) (ratio); higher = more soluble protein in presence of GTP
# Settings: concentration: 0.1mM
# Outline: (§1)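 Eight concentrations, 0.1 to 10 mM, were tested on Jurkat crude lysate for 10 min at room temperature and then 3 min at 37 °C, in three independent experiments. The lysate was solubilised with 0.8% NP40 and benzonase, ultracentrifuged, and the supernatant TMT-labelled for LC-MS/MS. Each value is the fold change against the detergent-processed vehicle in its own replicate, from vsn-normalised intensities.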
row,Target,NP40-soluble protein abundance
1,UniProt Q9Y2U5,1.05 ± 0.062
2,SCML2 (UniProt Q9UQR0),1.01 ± 0.051
3,AFG3L2 (UniProt Q9Y4W6),0.998 ± 0.016
4,STX8 (UniProt Q9UNK0),0.99 ± 0.041
5,SPIN1 (UniProt Q9Y657),0.968 ± 0.028

# Same assay, conditions: concentration: 0.5mM
row,Target,NP40-soluble protein abundance
1,UniProt Q9Y2U5,0.992 ± 0.051
2,SCML2 (UniProt Q9UQR0),1.06 ± 0.033
3,AFG3L2 (UniProt Q9Y4W6),0.996 ± 0.016
4,STX8 (UniProt Q9UNK0),0.927 ± 0.044
5,SPIN1 (UniProt Q9Y657),0.994 ± 0.067

# Same assay, conditions: concentration: 1mM
row,Target,NP40-soluble protein abundance
1,UniProt Q9Y2U5,0.939 ± 0.011
2,SCML2 (UniProt Q9UQR0),1.11 ± 0.013
3,AFG3L2 (UniProt Q9Y4W6),0.946 ± 0.024
4,STX8 (UniProt Q9UNK0),1.01 ± 0.037
5,SPIN1 (UniProt Q9Y657),0.972 ± 0.026

# Same assay, conditions: concentration: 2mM
row,Target,NP40-soluble protein abundance
1,UniProt Q9Y2U5,0.964 ± 0.053
2,SCML2 (UniProt Q9UQR0),1.15 ± 0.045
3,AFG3L2 (UniProt Q9Y4W6),0.969 ± 0.022
4,STX8 (UniProt Q9UNK0),1.04 ± 0.031
5,SPIN1 (UniProt Q9Y657),1 ± 0.061

# Same assay, conditions: concentration: 4mM
row,Target,NP40-soluble protein abundance
1,UniProt Q9Y2U5,0.945 ± 0.039
2,SCML2 (UniProt Q9UQR0),1.16 ± 0.029
3,AFG3L2 (UniProt Q9Y4W6),0.977 ± 0.022
4,STX8 (UniProt Q9UNK0),1.08 ± 0.051
5,SPIN1 (UniProt Q9Y657),1.03 ± 0.028

# Same assay, conditions: concentration: 6mM
row,Target,NP40-soluble protein abundance
1,UniProt Q9Y2U5,0.933 ± 0.016
2,SCML2 (UniProt Q9UQR0),1.19 ± 0.046
3,AFG3L2 (UniProt Q9Y4W6),0.987 ± 0.04
4,STX8 (UniProt Q9UNK0),1.06 ± 0.013
5,SPIN1 (UniProt Q9Y657),1.07 ± 0.055

# Same assay, conditions: concentration: 8mM
row,Target,NP40-soluble protein abundance
1,UniProt Q9Y2U5,0.929 ± 0.035
2,SCML2 (UniProt Q9UQR0),1.24 ± 0.087
3,AFG3L2 (UniProt Q9Y4W6),0.988 ± 0.02
4,STX8 (UniProt Q9UNK0),1 ± 0.11
5,SPIN1 (UniProt Q9Y657),1.09 ± 0.07

# Same assay, conditions: concentration: 10mM
row,Target,NP40-soluble protein abundance
1,UniProt Q9Y2U5,0.921 ± 0.021
2,SCML2 (UniProt Q9UQR0),1.22 ± 0.073
3,AFG3L2 (UniProt Q9Y4W6),0.938 ± 0.014
4,STX8 (UniProt Q9UNK0),1.07 ± 0.071
5,SPIN1 (UniProt Q9Y657),1.16 ± 0.051

# Compound: Nc1ncnc2c1ncn2[C@@H]1O[C@H](COP(=O)(O)OP(=O)(O)NP(=O)(O)O)[C@@H](O)[C@H]1O [adenylyl imidodiphosphate]
# Experiment: NP40-soluble protein abundance relative to vehicle (solubility fold change) (ratio); higher = more soluble protein in presence of AMP-PNP
# Settings: concentration: 1mM
# Outline: as §1
row,Target,NP40-soluble protein abundance
1,A0A087WVS8|Q70IA6 and related entries (UniProt Q70IA6),0.972 ± 0.026
2,A0A087WTX2|Q92504 (UniProt Q92504),0.972 ± 0.025
3,A0A087WVA8|Q8IWB9 and related entries (UniProt Q8IWB9),1.01 ± 0.061
4,A0A087WV73|P46087 and related entries (UniProt P46087),1.04 ± 0.038
5,A0A087WT30|Q8N5I9 (UniProt Q8N5I9),1.22 ± 0.044
6,A0A087WV23|Q5T123 and related entries (UniProt Q9H299),0.988 ± 0.042
7,A0A075B6T4|Q9NVX7 and related entries (UniProt Q9NVX7),0.988 ± 0.034
8,A0A075B716|H0YN88 and related entries (UniProt P08708),1.02 ± 0.072
9,A0A087WUD1|Q6DD87 (UniProt Q6DD87),0.9866 ± 0.007
10,A0A087WUS0|E7ETK0 and related entries (UniProt P62847),0.98 ± 0.065
11,A0A087WTU3|Q9Y6I9 (UniProt Q9Y6I9),1.03 ± 0.02
12,A0A087WUW9|Q9NXU5 (UniProt Q9NXU5),1 ± 0.053
13,A0A087WU02|F8VPA6 and related entries (UniProt Q96RQ1),0.938 ± 0.053
14,A0A024R7E8|K7EMV4 and related entries (UniProt P60002),1.08 ± 0.027
15,A0A087WVQ6|Q00610 and related entries (UniProt Q00610),0.927 ± 0.021
16,A0A087WUZ9|Q16760 and related entries (UniProt Q16760),0.964 ± 0.024
17,A0A087WU64|A6NMQ1 and related entries (UniProt P09884),0.963 ± 0.0094

row,Target,NP40-soluble protein abundance
1,A0A087WU53|Q9H0U3 (UniProt Q9H0U3),0.944 ± 0.055
2,A0A024RAC6 (UniProt Q14241),1.05 ± 0.014
3,A0A087WVF7|Q9NZM3 and related entries (UniProt Q9NZM3),1.048 ± 0.0098
4,A0A075B738|P16284 and related entries (UniProt P16284),1.02 ± 0.027
5,A0A087WUP3|F8WBY6 and related entries (UniProt Q8N3Z3),0.978 ± 0.0038
6,A0A087WUX8|A0A087WYF7|Q6UXV4 (UniProt Q6UXV4),1.06 ± 0.049
7,A0A087WU65|Q9NRW7 (UniProt Q9NRW7),0.953 ± 0.012
8,A0A087WT20|Q9NV06 (UniProt Q9NV06),1.026 ± 0.0096
9,A0A087WUL2|P49720 (UniProt P49720),0.888 ± 0.051
10,A0A087WTU9|A0A087WZY3|Q8TCU4 and related entries (UniProt Q8TCU4),0.934 ± 0.032
11,A0A024QZP7|P06493 (UniProt P06493),1.03 ± 0.016
12,A0A087WV86|B5LMG6 and related entries (UniProt Q6PGQ7+B5LMG6),1.019 ± 0.0098
13,A0A087WUT6|O60841 (UniProt O60841),1.05 ± 0.012
14,A0A087WV05|Q99417 (UniProt Q99417),0.997 ± 0.033
15,A0A087WUU7|Q96GX5 and related entries (UniProt Q96GX5),1.01 ± 0.02
16,A0A024RCR6|A0A0G2JK23|P46379 and related entries (UniProt P46379),0.96 ± 0.054

# Reformatted with tabs: part of the list above.
row	Target	NP40-soluble protein abundance
5	A0A087WUP3|F8WBY6 and related entries (UniProt Q8N3Z3)	0.978 ± 0.0038
10	A0A087WTU9|A0A087WZY3|Q8TCU4 and related entries (UniProt Q8TCU4)	0.934 ± 0.032
11	A0A024QZP7|P06493 (UniProt P06493)	1.03 ± 0.016
